Experimental data taken from patent US20100093623A1, “COMPOSITIONS AND METHODS FOR […]-LIKE RECEPTOR ACTIVITY AND USES THEREOF” (Burnham Institute for Medical Research, priority 2008, published 2010).
No constants are given. Whether binding was seen depends on the method and setting. Some entries that bind do so weakly or less than the wild type. Where a sequence is shown, tags or fusion partners need not be part of it.

Target: T1, (His)6-NLRP1 (NLR family, pyrin domain-containing 1), purified recombinant full-length protein from Sf21 cells (human) (UniProt Q9C000)
T1 sequence: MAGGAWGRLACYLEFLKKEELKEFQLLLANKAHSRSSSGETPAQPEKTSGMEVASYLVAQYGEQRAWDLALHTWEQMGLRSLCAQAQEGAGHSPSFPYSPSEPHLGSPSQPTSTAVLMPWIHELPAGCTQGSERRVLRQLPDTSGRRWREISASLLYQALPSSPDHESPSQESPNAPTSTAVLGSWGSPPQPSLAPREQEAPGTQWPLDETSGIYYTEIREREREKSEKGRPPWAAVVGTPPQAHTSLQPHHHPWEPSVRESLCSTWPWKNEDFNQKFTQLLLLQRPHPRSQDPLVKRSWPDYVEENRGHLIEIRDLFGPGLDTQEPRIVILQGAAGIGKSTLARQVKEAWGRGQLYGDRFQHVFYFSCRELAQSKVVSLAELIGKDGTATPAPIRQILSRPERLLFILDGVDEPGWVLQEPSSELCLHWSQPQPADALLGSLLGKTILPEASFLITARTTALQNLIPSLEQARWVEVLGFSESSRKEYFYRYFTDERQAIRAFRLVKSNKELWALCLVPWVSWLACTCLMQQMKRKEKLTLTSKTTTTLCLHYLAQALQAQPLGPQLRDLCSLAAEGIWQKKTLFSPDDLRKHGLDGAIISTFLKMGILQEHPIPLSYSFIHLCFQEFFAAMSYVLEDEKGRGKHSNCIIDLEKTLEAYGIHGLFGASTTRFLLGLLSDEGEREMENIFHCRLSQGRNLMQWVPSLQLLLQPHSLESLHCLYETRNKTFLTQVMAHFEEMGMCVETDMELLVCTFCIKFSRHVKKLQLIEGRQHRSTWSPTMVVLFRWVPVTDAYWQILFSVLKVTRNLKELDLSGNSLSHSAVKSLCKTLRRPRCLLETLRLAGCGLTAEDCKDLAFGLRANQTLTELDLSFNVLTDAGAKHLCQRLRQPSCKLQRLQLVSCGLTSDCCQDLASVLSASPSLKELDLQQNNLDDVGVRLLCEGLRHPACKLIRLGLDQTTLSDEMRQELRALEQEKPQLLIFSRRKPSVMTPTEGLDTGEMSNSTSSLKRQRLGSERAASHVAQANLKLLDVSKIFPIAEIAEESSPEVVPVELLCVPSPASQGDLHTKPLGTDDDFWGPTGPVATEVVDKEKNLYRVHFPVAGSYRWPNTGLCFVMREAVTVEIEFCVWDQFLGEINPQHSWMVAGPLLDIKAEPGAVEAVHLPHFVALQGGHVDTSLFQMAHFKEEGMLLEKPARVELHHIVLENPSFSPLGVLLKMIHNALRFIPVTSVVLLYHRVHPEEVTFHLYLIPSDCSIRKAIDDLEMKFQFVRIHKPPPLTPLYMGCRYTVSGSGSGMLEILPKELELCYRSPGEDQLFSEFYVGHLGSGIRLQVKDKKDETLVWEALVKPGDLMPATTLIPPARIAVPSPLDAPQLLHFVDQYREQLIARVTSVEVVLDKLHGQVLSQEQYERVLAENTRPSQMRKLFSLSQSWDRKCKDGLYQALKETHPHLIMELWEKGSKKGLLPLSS
Assay: 2D native-PAGE/SDS-PAGE co-migration, purified proteins

GST-Bcl-XL (Bcl-XL lacking its C-terminal transmembrane domain, ~last 20 amino acids) (from UniProt P08515 1-218; Q07817 1-211)
binding: binds
